# Laboratory results reported in PMC7753766.
# Protein sequences, listed by entry. Tags and fused reporters are not part of them. Residues count along the entry.
# UniProt Q9UEW3, residues 65-520: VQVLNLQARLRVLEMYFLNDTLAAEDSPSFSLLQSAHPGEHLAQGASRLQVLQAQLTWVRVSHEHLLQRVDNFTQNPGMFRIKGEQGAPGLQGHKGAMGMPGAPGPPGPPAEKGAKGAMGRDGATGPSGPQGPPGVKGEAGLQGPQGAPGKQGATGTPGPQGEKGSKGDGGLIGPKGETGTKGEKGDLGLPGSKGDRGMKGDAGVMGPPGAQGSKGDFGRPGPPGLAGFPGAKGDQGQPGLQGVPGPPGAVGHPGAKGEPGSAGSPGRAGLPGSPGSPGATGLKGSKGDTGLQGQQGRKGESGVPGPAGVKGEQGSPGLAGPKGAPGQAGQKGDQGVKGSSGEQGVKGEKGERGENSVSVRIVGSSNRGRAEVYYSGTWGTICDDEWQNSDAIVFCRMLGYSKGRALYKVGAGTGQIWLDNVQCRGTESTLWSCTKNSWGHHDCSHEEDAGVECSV
# Results are given in words; binding and its absence hold for the method and conditions named.
# Molecular target: T1, purified human C-reactive protein (CRP) (human) (UniProt P02741)
# T1 sequence: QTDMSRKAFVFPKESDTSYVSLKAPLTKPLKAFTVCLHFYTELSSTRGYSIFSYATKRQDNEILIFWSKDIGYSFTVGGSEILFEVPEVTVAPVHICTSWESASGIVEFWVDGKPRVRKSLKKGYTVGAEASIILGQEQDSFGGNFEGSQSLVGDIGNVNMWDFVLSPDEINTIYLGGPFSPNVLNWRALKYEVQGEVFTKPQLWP
# Assay: condition: 5 µg/ml receptor; 40 µg/ml CRP added to the serum; flow cytometry of protein-coated crystals; MSU crystals (lot1) opsonized in human serum of three donors with or without 40 µg/ml CRP at 37°C for 30 min, washed, then 5 µg/ml His-tagged receptor in HBSS + 5% BSA at 4°C for 60 min; detected with anti-His Tag PE; only the binder purified
row,Substance,binding
1,recombinant His-tagged human LDLR (low-density lipoprotein receptor) (from UniProt P01130 22-788),no binding
2,recombinant His-tagged human MARCO (macrophage receptor with collagenous structure) (from UniProt Q9UEW3-1 65-520),no binding
